Among the data in article doi:10.1101/2025.10.22.683840 are binding values, retold here.

By UniProt entry, the sequences of proteins in these tests, tags left out.
UniProt Q92878: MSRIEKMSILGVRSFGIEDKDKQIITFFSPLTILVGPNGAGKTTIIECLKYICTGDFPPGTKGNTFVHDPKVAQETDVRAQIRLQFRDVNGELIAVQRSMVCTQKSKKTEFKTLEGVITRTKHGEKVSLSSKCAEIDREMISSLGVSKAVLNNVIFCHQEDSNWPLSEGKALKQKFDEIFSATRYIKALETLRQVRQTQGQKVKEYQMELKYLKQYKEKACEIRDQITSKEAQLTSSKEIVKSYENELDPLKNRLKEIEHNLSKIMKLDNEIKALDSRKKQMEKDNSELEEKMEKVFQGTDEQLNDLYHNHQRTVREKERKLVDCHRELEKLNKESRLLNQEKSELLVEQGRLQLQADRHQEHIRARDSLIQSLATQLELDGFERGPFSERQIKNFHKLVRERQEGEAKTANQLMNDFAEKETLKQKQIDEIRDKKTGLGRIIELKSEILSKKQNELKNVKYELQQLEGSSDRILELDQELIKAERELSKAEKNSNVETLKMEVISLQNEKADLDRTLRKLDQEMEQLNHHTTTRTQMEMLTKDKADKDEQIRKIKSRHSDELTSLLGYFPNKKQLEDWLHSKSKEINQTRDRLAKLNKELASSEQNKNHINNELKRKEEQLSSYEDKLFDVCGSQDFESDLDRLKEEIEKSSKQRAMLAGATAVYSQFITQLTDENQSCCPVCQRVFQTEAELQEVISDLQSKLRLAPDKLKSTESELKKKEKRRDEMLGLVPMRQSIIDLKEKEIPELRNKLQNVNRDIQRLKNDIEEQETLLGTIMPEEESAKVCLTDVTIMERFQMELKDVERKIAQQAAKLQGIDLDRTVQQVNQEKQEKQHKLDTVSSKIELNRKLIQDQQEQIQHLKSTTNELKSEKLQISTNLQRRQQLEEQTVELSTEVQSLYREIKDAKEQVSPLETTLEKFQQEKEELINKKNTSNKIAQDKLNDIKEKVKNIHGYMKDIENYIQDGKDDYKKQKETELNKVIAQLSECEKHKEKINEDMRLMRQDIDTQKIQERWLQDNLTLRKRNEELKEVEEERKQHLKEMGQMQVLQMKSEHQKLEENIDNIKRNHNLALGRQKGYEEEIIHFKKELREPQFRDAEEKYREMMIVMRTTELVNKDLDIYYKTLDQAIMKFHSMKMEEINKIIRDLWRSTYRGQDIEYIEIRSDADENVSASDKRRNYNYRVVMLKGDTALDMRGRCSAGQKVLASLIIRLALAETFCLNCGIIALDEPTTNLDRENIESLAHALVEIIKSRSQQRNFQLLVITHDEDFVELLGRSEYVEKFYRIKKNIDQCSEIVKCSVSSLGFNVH

The assay addresses p53-BirA*-FLAG (human) (UniProt P04637). In words: proximity labelling.

Results are given in words; binding and its absence hold for the method and conditions named. In cells and extracts the contact can be indirect. Here binding means that the protein was enriched with, or labelled near, the bait; the list need not be complete.

Regarding SUMO1 (from UniProt P63165 1-97), the binding entry was “binds”. “structural maintenance of chromosome (SMC) family member (Rad50) (from UniProt Q92878 1-1312)”: the binding result was “binds”.
